Laboratory results taken from PubChem BioAssay AID1487 (National Center for Advancing Translational Sciences (NCATS), 2009).
Where “and” joins values, the source holds several entries; their conditions need not be identical. Equal entries are not always repeated. This is one part of the list. The main result of the screen is listed elsewhere. These columns were measured beside it and carry no call. Compounds called inactive in the main read-out are mostly missing here. Potencies come from curve fits of mixed quality, noted in brackets.

Assay: qHTS Assay for Modulators of Lamin A Splicing
Details: HeLa LMNA splicing GFP/RFP minigene ratio, 48 h
Procedure, shortened: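 S3 HeLa stable clones carrying a lamin A-EGFP splicing minigene plus DsRed2 were seeded at 600 cells/well in Opti-MEM with 2% FBS, pin-dosed and incubated 48 h at 37°C. Acumen cytometry (488 nm) gave the GFP/RFP total-intensity ratio.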

[1] = measured here: RFP viability control channel
[2] = measured here: GFP splicing reporter channel

COC(=O)c1ccc(CSc2nnc(-c3ccc4c(c3)OCO4)n2-c2ccccc2)o1
AC50 [1]: 0.112 µM [rising, full curve, poor fit]

Cc1cccc(-n2c(SCC(=O)N3CCCC3)nc3n[nH]c(C)c3c2=N)c1
AC50 [1]: 11.2 µM [rising, single point]

CS(=O)(=O)N(CC(=O)NCC1CCCO1)c1cccc(Cl)c1 (centres undefined)
AC50 [2]: 35.5 µM [rising, partial curve]

O=C(CN(Cc1ccco1)C(=O)c1ccccc1)Nc1ccc(Cl)c(Cl)c1
AC50 [2]: 10 µM [falling, single point]
AC50 [1]: 0.0282 µM [falling, partial curve]

CCOC(=O)c1c(C)[nH]c(C=O)c1Cc1cccc(Cl)c1
AC50 [2]: 11.2 µM [rising, single point]
AC50 [1]: 15.8 µM [rising, partial curve]

COc1ccc(Cc2nc(C(=O)Nc3ccc(F)cc3)cs2)cc1
AC50 [1]: 11.2 µM [rising, partial curve]

CCOC(=O)c1[nH]c2ccccc2c1NC(=S)Nc1ccccc1C
AC50 [1]: 2.24 µM [rising, partial curve, poor fit]

CCn1cc(CNC(=O)c2cc(Cl)ccc2OC)c(C)n1
AC50 [2]: 20 µM [rising, partial curve, poor fit]

CCOc1cc(/C=C\c2[nH]c(=O)[nH]c(=O)c2[N+](=O)[O-])ccc1OC(C)CC (centres undefined)
AC50 [2]: 25.1 µM [falling, single point]

COC(=O)c1scc(-c2ccc(C)cc2)c1S(=O)(=O)Nc1c(C)cc(C)cc1C
AC50 [1]: 1.58 µM [rising, full curve, poor fit]

CCC1Oc2ccccc2N(CC(=O)NCCCN2CCC(C)CC2)C1=O (centres undefined)
AC50 [1]: 14.1 µM [rising, single point]

COc1cc2c(C(=O)N3CCN(c4ccccc4)CC3)c(C)oc2cc1Br
AC50 [2]: 22.4 µM [rising, single point]
AC50 [1]: 35.5 µM [rising, single point]

CCOC(=O)c1c(C)[nH]c(N=Nc2ccc(C)cc2C)c1C
AC50 [2]: 35.5 µM [falling, single point]
AC50 [1]: 35.5 µM [falling, partial curve]

COc1ccc(-n2c(C)cc(C(=O)Cn3nnc4ccccc4c3=O)c2C)cc1
AC50 [1]: 22.4 µM [rising, partial curve, poor fit]

O=C(/C=C/c1ccc(-c2ccccc2[N+](=O)[O-])o1)c1ccc(Br)cc1
AC50 [2]: 14.1 µM [falling, partial curve]

O=C(Nc1cccc(C(F)(F)F)c1)N(Cc1ccc(Cl)cc1)CC(O)C(F)(F)F (centres undefined)
AC50 [2]: 12.6 µM [falling, partial curve, poor fit]
AC50 [1]: 22.4 µM [falling, single point]

CCc1ccccc1NC(=O)c1cc(S(=O)(=O)NC2CCCC2)ccc1F
AC50 [2]: 0.02 µM [rising, full curve, poor fit]
AC50 [1]: 0.0316 µM [rising, full curve, poor fit]

Cc1cc(Cl)cc(Cl)c1OCCOc1cccc2cccnc12
AC50 [1]: 28.2 µM [rising, single point]

Cc1cccc(NC(=O)CSc2nc3c([nH]c4ccccc43)c(=O)n2-c2ccc(F)cc2)c1C
AC50 [2]: 35.5 µM [falling, single point]
AC50 [1]: 31.6 µM [falling, single point]

Cc1cccc(OCC(=O)Nc2ccc3c(c2)N(C)C(=O)c2ccccc2S3)c1
AC50 [2]: 1.12 µM [falling, partial curve]
AC50 [1]: 31.6 µM [rising, single point]

O=C(Cc1cccs1)N1CCCC(c2nc(-c3ccc(S(=O)(=O)N4CCCC4)cc3)no2)C1 (centres undefined)
AC50 [1]: 14.1 µM [rising, single point]

N#Cc1ccc(NC(=O)c2cc(-c3cccs3)on2)cc1
AC50 [1]: 1.78 µM [rising, full curve, poor fit]

COc1ccc(N2CCN(c3oc(-c4ccccc4OC)nc3C#N)CC2)cc1
AC50 [1]: 11.2 µM [rising, single point]

O=C(C1CCCN(S(=O)(=O)c2cccnc2)C1)N1CCN(c2ccccn2)CC1 (centres undefined)
AC50 [1]: 0.0112 µM [rising, full curve, poor fit]

Cc1occc1C(=O)N1CCN(c2ccc(Cl)c(Cl)c2)CC1
AC50 [1]: 22.4 µM [rising, single point]

NC1=NC(=O)/C(=C\c2ccsc2)S1
AC50 [2]: 35.5 µM [falling, single point]

CCOc1cc(/C=N/NC(=O)CSc2cccc3cccnc23)ccc1O
AC50 [2]: 0.126 µM [falling, full curve, poor fit]

CC1(C)CC(NC(=S)NCc2ccc3c(c2)OCO3)CC(C)(C)N1
AC50 [2]: 0.891 µM [falling, full curve, poor fit]

COc1ccc(Br)cc1CNC(=O)CN1C(=O)CSc2ccc(S(=O)(=O)N3CCOCC3)cc21
AC50 [1]: 0.01 µM [falling, full curve, poor fit]

Cc1ccc(NC(=O)c2cc3c(=O)n(Cc4cccnc4)ccc3nc2C)cc1F
AC50 [2]: 3.16 µM [falling, partial curve]
AC50 [1]: 3.98 µM [falling, partial curve, poor fit]

O=C(CO/N=C\c1ccccc1)Nc1ccccc1C(=O)N1CCOCC1
AC50 [2]: 14.1 µM [rising, partial curve]
AC50 [1]: 20 µM [rising, single point]

Cc1ccc(-c2[nH]ncc2/C=N/n2c(COc3ccccc3C)nc3ccccc3c2=O)cc1
AC50 [1]: 22.4 µM [rising, single point]

Cc1cccc(C(=O)Nc2cccc(C(=O)OCc3cc(=O)n4ccsc4n3)c2)c1
AC50 [1]: 0.00447 µM [falling, full curve, poor fit]

O=C(NC(CC(=O)N1CCN(c2ccccc2)CC1)c1ccccc1)c1ccccc1Cl (centres undefined)
AC50 [2]: 17.8 µM [rising, single point]
AC50 [1]: 35.5 µM [rising, single point]

CCN(CC)CCCN1C(=O)C(O)=C(C(=O)c2sc(C)nc2C)C1c1ccc(C)o1 (centres undefined)
AC50 [2]: 6.31 µM [rising, single point]
AC50 [1]: 5.62 µM [rising, single point]

COc1ccc(CCNC(=O)C(=O)NCC2OCCN2S(=O)(=O)c2ccc(Br)cc2)cc1 (centres undefined)
AC50 [2]: 5.01 µM [rising, partial curve, poor fit]
AC50 [1]: 5.62 µM [rising, partial curve]

CC(C)(C)NC(=O)NC(=O)CN1CCN(C(c2ccccc2)c2ccccc2)CC1
AC50 [1]: 35.5 µM [rising, single point]

COc1ccc(-c2csc3nc(C(C)(C)C)oc(=O)c23)cc1OC
AC50 [2]: 3.98 µM [falling, full curve]
AC50 [1]: 3.16 µM [falling, partial curve]

Oc1cccc(/C=N/NC(=S)NCCN2CCOCC2)c1O
AC50 [2]: 35.5 µM [falling, single point]
AC50 [1]: 35.5 µM [falling, single point]

O=C(Nc1ccc(F)cc1)c1cccc(N2C(=O)C3C4CCC(C4)C3C2=O)c1 (centres undefined)
AC50 [2]: 11.2 µM [rising, partial curve]
AC50 [1]: 14.1 µM [rising, partial curve]

CC(C)(C)c1ccc2c(c1)OC(C(=O)N/N=C\c1ccccn1)CO2 (centres undefined)
AC50 [2]: 3.16 µM [rising, partial curve, poor fit]
AC50 [1]: 0.708 µM [rising, partial curve]

O=C(COc1ccccc1)Nc1nc(-c2ccc(S(=O)(=O)N3CCOCC3)cc2)cs1
AC50 [2]: 15.8 µM [rising, partial curve, poor fit]
AC50 [1]: 22.4 µM [rising, single point]

COc1ccccc1N1CCN(CC(=O)Nc2ccc(Cl)c(C(F)(F)F)c2)CC1
AC50 [1]: 35.5 µM [rising, single point]

COC(=O)Cc1ccc(N(Cc2ccccc2F)S(=O)(=O)c2ccc(C)cc2)cc1
AC50 [1]: 3.98 µM [falling, partial curve]

CCN1CCN(c2cc(C)c3cc(NC(=S)N4CCC5(CC4)OCCO5)ccc3n2)CC1
AC50 [2]: 1.26 µM [falling, partial curve, poor fit]

NS(=O)(=O)c1cc2c(cc1Cl)NC=NS2(=O)=O
AC50 [2]: 3.55 µM [falling, single point] and 6.31 µM [falling, partial curve, poor fit] and 6.31 µM [falling, single point]
AC50 [1]: 0.891 µM [falling, partial curve, poor fit]

O=C(Cn1ccc2ccccc2c1=O)NCCC(=O)N1CCN(c2cccc(C(F)(F)F)c2)CC1
AC50 [2]: 14.1 µM [rising, single point]
AC50 [1]: 17.8 µM [rising, single point]

O=C(CCNc1ccc(Cc2ccncc2)cc1)c1ccc([N+](=O)[O-])cc1
AC50 [2]: 5.62 µM [falling, single point]

Cc1cc(C)c(C(=O)OCCNC(=O)c2cccnc2)cc1C
AC50 [2]: 11.2 µM [rising, partial curve, poor fit]
AC50 [1]: 12.6 µM [rising, partial curve, poor fit]

O=C(Nc1c(C(=O)Nc2cccc(F)c2)oc2ccccc12)c1ccc2c(c1)OCO2
AC50 [1]: 17.8 µM [falling, single point]

C[C@@H](C(=O)NCc1ccccc1)[C@H]1C[C@]1(C)[C@H](NC(=O)OCc1ccccc1)c1ccccc1
AC50 [1]: 11.2 µM [rising, partial curve]

CSc1nc(C)cc(SCC(=O)Nc2ccc(Cl)cc2Cl)n1
AC50 [2]: 35.5 µM [rising, single point]
AC50 [1]: 35.5 µM [rising, single point]
